Literature values, collected in US20200129514A1, “JAK INHIBITION AS A NOVEL THERAPY FOR PREVENTING TUMORS IN PEUTZ-JEGHERS SYNDROME” (Curingenetics, LLC, priority 2018, published 2020).
For at least one compound, name, drawing or mass did not settle the structure.

How the values were obtained:
PJS polyposis = details: previous preclinical studies; cited from earlier work
[1] = tested on: PJS patients and Lkb1+/− mice; details: cited from earlier work

SMILES | reduction of polyp development compared with Jak inhibition (PJS polyposis) | reduction of PJS polyposis [1]
Cc1ccc(-c2cc(C(F)(F)F)nn2-c2ccc(S(N)(=O)=O)cc2)cc1 [Celecoxib] | have not resulted in a comparable reduction | reducing the size but not number of tumors
CO[C@H]1C[C@@H]2CC[C@@H](C)[C@@](O)(O2)C(=O)C(=O)N2CCCC[C@H]2C(=O)O[C@H]([C@H](C)C[C@@H]2CC[C@@H](O)[C@H](OC)C2)CC(=O)[C@H](C)/C=C(\C)[C@@H](O)[C@@H](OC)C(=O)[C@H](C)C[C@H](C)/C=C/C=C/C=C/1C [rapamycin] | have not resulted in a comparable reduction | 
